The other results are listed elsewhere or left out.
compound: c1cn2cc(-c3ccc4cn[nH]c4c3)nc(Nc3ccc(N4CCOCC4)cc3)c2n1 [entospletinib]; test: log2 fold change, soluble protein after heating vs DMSO (PISA); higher = thermal stabilisation; K562 cells, 10 uM, 30 min; active = over 0.2 and 3.5 SD of the protein, either way, in both replicates (recomputed)
Procedure, shortened: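 K562 cells at 2×10^6 cells/mL were treated for 30 min with 10 μM compound, and aliquots were heated for 3 min over 48°C-58°C before pooling. Extraction used PBS with 0.5% NP-40 at 4°C, and soluble protein was the supernatant after 21,000xg for 90 min, measured by TMTpro 16plex LC-MS/MS with channel sums equalised. Thermal stability values, relative to control samples and from duplicates, are log2 fold changes.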

Protein sequences, listed by entry. Tags and fused reporters are not part of them. Lines headed by an entry give the natural chain unless they say otherwise; changes in a name come on top.
UniProt O43909: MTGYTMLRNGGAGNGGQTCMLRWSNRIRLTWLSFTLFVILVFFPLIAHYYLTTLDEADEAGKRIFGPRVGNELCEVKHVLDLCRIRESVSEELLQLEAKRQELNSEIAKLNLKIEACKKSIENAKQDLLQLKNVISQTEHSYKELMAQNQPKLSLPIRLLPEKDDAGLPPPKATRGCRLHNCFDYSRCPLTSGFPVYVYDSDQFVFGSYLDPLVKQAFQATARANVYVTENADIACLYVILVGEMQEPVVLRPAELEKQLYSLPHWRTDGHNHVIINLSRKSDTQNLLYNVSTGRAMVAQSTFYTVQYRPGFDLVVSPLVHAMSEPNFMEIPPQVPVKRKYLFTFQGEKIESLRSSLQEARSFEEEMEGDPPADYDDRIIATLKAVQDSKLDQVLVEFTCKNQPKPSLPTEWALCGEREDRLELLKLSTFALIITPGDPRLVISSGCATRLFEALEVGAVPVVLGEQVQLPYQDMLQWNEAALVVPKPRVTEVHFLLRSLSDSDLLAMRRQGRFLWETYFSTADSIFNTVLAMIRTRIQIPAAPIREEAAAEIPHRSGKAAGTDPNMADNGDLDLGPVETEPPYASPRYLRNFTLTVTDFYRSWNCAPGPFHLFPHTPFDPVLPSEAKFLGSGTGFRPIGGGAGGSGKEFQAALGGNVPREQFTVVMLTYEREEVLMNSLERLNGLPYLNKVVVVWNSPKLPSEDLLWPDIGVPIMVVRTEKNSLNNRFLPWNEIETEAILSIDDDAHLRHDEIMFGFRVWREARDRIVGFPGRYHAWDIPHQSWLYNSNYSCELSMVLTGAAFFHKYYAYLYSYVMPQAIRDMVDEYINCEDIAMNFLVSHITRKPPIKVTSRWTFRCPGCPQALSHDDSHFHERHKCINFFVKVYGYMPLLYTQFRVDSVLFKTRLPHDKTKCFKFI
UniProt O43491, whole entry, looked up: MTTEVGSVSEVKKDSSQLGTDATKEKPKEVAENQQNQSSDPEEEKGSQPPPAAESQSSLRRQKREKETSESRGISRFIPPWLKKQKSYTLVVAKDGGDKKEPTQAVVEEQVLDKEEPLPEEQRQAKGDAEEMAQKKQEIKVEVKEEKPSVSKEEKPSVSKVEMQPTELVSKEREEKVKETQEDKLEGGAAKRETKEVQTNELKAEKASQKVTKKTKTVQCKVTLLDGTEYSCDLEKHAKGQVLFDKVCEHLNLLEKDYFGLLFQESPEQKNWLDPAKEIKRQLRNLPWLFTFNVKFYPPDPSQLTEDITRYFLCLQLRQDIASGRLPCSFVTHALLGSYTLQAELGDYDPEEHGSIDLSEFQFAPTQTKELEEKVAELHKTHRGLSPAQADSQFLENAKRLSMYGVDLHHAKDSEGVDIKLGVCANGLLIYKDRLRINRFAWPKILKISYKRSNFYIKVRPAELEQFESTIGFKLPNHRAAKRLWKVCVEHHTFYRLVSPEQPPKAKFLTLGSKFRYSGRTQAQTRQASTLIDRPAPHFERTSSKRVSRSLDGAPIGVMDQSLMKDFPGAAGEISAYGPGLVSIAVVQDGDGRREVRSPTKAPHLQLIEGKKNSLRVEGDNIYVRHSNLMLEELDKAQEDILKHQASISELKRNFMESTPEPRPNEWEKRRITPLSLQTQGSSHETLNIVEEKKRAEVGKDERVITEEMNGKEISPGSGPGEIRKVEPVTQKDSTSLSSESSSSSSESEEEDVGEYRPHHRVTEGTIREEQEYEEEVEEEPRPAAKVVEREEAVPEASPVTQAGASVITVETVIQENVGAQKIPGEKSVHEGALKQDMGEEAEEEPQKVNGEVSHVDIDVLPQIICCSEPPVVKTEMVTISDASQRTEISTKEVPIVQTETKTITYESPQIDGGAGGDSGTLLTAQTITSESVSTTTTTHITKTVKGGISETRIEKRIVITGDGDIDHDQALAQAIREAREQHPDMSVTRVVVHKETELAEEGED
UniProt Q9Y2J2, whole entry, looked up: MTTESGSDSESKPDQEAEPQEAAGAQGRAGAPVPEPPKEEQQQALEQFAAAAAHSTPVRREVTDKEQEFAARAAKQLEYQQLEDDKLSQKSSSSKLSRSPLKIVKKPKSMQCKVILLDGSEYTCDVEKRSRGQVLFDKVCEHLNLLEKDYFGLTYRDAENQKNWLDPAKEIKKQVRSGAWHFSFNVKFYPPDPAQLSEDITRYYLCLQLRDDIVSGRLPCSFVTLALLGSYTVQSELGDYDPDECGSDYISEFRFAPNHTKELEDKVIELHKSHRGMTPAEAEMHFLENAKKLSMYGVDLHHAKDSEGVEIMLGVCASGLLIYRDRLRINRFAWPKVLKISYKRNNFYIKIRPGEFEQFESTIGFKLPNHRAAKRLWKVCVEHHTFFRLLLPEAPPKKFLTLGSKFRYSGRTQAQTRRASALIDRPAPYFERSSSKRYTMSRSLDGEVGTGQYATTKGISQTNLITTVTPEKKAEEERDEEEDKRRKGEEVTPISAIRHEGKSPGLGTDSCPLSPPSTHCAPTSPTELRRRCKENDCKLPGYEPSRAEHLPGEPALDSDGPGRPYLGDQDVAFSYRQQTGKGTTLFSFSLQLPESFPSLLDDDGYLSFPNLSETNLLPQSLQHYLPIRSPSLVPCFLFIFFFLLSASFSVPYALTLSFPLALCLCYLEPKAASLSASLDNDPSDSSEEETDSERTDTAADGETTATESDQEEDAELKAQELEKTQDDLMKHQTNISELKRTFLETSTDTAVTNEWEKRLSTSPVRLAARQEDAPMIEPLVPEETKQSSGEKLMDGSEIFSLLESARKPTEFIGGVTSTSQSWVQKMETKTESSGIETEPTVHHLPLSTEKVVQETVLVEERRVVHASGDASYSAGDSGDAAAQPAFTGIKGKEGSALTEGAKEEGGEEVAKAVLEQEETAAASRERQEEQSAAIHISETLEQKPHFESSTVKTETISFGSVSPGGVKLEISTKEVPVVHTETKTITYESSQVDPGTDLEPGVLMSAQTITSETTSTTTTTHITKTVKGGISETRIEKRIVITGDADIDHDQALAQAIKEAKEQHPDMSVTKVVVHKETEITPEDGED
UniProt Q96A26: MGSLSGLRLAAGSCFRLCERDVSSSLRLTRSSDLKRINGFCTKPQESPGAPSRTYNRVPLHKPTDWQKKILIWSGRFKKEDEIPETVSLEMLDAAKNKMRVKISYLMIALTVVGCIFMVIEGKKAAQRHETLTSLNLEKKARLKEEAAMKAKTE
UniProt Q6P2I3: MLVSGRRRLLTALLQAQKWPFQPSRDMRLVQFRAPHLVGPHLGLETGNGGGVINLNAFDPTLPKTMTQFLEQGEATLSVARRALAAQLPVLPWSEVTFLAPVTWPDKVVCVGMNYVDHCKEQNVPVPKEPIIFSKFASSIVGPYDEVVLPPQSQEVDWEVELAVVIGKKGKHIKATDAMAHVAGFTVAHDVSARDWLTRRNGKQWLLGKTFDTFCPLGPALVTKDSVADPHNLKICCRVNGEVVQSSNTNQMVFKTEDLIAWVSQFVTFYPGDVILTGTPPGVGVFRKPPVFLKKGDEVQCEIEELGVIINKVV
UniProt P00488: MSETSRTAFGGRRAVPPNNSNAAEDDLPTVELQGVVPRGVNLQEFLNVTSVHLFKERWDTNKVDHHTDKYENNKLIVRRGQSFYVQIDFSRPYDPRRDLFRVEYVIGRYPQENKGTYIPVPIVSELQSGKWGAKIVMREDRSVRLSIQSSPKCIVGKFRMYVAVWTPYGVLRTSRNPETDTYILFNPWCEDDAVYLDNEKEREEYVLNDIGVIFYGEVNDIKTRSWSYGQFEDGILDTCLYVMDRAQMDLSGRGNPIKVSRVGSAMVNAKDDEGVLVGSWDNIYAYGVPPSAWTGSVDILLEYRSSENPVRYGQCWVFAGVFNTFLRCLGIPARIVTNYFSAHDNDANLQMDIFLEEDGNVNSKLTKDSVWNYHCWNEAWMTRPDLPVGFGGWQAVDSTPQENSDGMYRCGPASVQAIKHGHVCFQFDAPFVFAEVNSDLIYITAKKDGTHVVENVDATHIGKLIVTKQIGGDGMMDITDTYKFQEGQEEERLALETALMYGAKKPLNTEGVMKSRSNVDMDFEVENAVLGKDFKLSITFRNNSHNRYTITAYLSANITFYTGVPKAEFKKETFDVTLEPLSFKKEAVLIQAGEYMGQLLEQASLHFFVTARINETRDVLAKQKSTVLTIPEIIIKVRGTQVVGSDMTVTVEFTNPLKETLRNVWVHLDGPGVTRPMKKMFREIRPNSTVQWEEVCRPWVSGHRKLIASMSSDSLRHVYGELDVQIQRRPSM
UniProt P28715: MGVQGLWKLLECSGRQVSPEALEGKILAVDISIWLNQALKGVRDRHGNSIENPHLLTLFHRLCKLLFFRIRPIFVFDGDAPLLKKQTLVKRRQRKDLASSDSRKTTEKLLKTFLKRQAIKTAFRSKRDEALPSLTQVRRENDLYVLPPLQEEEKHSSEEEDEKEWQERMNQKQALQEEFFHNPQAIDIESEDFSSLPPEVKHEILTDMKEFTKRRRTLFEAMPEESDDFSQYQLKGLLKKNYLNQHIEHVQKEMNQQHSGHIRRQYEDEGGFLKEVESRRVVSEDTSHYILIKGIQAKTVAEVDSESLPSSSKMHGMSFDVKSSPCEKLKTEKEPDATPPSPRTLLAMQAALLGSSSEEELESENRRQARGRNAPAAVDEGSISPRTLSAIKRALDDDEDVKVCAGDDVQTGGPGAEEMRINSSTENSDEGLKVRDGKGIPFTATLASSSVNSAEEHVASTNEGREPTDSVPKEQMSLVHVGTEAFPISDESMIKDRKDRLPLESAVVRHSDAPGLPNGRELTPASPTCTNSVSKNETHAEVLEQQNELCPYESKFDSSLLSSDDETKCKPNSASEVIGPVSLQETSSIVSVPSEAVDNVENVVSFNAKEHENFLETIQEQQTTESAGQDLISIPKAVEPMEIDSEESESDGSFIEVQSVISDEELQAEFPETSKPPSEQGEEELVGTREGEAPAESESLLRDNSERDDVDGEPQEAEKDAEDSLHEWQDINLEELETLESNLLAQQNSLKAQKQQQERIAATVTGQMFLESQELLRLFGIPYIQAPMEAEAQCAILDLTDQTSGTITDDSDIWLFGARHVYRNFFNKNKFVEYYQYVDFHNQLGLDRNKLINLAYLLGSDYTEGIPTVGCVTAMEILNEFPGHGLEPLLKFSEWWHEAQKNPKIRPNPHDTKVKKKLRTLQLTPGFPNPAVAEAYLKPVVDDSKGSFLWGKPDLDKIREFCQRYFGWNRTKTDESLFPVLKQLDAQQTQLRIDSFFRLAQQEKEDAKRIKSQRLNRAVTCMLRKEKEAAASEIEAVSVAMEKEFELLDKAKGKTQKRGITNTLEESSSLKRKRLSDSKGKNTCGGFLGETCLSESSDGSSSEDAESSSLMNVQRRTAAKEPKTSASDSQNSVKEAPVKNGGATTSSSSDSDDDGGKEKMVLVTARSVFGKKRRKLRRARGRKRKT
UniProt Q01844: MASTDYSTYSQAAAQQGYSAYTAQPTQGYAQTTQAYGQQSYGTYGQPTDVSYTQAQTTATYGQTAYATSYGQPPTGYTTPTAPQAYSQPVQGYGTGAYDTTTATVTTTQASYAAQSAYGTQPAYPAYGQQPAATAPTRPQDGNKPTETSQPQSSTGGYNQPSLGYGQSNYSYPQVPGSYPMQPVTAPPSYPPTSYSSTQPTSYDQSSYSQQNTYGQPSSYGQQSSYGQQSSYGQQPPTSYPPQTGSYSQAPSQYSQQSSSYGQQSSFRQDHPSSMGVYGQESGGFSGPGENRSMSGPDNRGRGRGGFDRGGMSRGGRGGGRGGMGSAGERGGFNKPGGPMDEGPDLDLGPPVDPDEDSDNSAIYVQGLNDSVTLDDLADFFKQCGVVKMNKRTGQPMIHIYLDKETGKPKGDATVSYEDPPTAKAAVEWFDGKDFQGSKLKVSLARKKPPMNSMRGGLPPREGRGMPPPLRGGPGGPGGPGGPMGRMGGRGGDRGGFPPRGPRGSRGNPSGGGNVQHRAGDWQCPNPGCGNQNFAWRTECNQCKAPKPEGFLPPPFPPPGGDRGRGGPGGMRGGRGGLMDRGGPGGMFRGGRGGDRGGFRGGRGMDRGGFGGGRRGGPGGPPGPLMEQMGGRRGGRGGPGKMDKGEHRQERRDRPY
UniProt Q9NQT4, whole entry, looked up: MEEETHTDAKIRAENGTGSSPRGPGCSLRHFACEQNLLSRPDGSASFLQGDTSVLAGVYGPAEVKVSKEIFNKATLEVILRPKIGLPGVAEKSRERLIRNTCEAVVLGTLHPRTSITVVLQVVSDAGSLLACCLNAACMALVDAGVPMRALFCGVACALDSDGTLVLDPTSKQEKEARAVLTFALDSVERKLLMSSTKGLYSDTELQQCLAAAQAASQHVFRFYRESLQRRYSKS

log2 fold change, inactive:
ERAL1 (UniProt O75616) 0.081, EXOSC9 isoform 2 (UniProt Q06265) 0.028, EPRS (UniProt P07814) 0.167, ERP29 (UniProt P30040) 0.022, EZR (UniProt P15311) -0.011, ESRRB isoform 1 (UniProt O95718) 0.018, F2 (UniProt P00734) 0.089, EPS15L1 isoform 2 (UniProt Q9UBC2) -0.011, ERI3 (UniProt O43414) 0.021, EXOSC2 (UniProt Q13868) -0.025, EXTL3 (UniProt O43909) 0.161, EWSR1 (UniProt H7BY36) 0.038, FAAP20 isoform 2 (UniProt Q6NZ36) -0.072, ESYT2 (UniProt H7BXI1) 0.03, ESD (UniProt P10768) -0.007, EPB41L2 (UniProt O43491) 0.024, EPPK1 (UniProt P58107) 0.16, ERBIN isoform 8 (UniProt Q96RT1) 0.019, EPB41L3 (UniProt Q9Y2J2) 0.035, FAM162A (UniProt Q96A26) 0.027, EPN2 (UniProt O95208) -0.008, ESRRA (UniProt P11474) 0.055, FAHD2B (UniProt Q6P2I3) 0.003, FAH (UniProt P16930) -0.033, F13A1 (UniProt P00488) -0.01, FAM122B isoform 3 (UniProt Q7Z309) -0.017, ERCC5 (UniProt P28715) 0.035, EWSR1 isoform 5 (UniProt Q01844) 0.044, FADD (UniProt Q13158) 0.048, EXOSC5 (UniProt Q9NQT4) -0.03, ERMP1 (UniProt Q7Z2K6) 0.002
